Experimental data from publication PMC8073576.
These are yes or no findings as the source states them, for the method shown. Binding seen in cells or lysates may run through a third protein. These calls come from enrichment with a bait or labelling near it, and not all partners need be listed. Sequences can lack the tags named with a protein.

Protein sequences, listed by entry. Tags and fused reporters are not part of them.
UniProt P07355: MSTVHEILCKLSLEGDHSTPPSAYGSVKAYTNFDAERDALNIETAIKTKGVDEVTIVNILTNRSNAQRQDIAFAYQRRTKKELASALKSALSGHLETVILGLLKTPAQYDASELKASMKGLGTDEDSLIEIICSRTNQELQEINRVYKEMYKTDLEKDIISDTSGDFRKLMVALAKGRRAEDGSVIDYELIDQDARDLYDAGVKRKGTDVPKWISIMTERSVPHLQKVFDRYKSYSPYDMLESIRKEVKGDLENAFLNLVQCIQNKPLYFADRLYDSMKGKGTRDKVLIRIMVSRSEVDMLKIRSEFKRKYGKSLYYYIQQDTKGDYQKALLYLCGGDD

Target: T1, FLAG-HIS-PRDX2 (human peroxiredoxin 2, wild-type) (human) (UniProt P32119)
T1 sequence: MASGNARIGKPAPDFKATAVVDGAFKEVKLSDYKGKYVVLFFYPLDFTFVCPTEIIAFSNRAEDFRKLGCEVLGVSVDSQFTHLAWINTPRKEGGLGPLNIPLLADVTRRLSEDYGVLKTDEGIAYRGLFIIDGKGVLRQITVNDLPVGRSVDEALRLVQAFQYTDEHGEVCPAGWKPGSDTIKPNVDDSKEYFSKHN
Assay: affinity purification with mass spectrometry; Flag-PRDX2 (wild-type or CPRS mutant) immunoprecipitated on anti-Flag-M2 beads from HEK293T cells treated with 25 uM H2O2 for 2 min; free thiols alkylated with NEM and iodoacetamide; washes with lysis buffer containing 1 M NaCl; on-bead digestion, label-free quantification, proDA analysis of WT against CPRS; three biological replicates

ANXA2 (from UniProt P07355 1-339)
binding: binds
